In the supplement of paper PMC10331698:
± gives the standard deviation of the averaged measurements. Most entries show no effect beyond the scatter of the controls.

Assays:
Test in all cases: level (log10 ratio to DMSO vehicle control); higher = higher biomarker level / cell amount than vehicle control
[1] = compound: C=C(C)C(=O)OCCC(F)(F)C(F)(F)C(F)(F)C(F)(F)C(F)(C(F)(F)F)C(F)(F)F [(Perfluoro-5-methylhexyl)ethyl 2-methylprop-2-enoate]; details: in DMSO
Procedure: (§1)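 BioMAP Diversity Plus panel of 12 human primary cell co-culture systems (3C, 4H, LPS, SAg, BT, BF4T, BE3C, CASM3C, HDF3CGF, KF3CT, MyoF, Mphg). Compounds were added 1 h before stimulation and left for 24 h (MyoF 48 h; BT 72 h for soluble read-outs or 6 d for IgG). Biomarkers were read by ELISA, cytotoxicity by SRB, PBMC viability and proliferation by Alamar Blue. Each well value was divided by the mean of 8 DMSO control wells on the same plate and log10 transformed; duplicate blinded samples were tested at 4 concentrations.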

[2] = compound: C=C(C)C(=O)OCCC(F)(F)C(F)(F)C(F)(F)C(F)(F)C(F)(F)C(F)(F)C(F)(F)C(F)(F)F [8:2 Fluorotelomer methacrylate]; details: in DMSO
Procedure: as §1

[3] = compound: COC(=O)CCC(F)(F)C(F)(F)C(F)(F)C(F)(F)F [Methyl 2H,2H,3H,3H-perfluoroheptanoate]; details: 2200 nM; in DMSO
Procedure: as §1

[4] = compound: FC(F)(F)C(F)(F)C(F)(F)C(F)(F)C(F)(F)CCI [1-Iodo-1H,1H,2H,2H-perfluoroheptane]; details: 2200 nM; in DMSO
Procedure: as §1

Octafluoroadipamide = compound: NC(=O)C(F)(F)C(F)(F)C(F)(F)C(F)(F)C(N)=O [Octafluoroadipamide]; details: 2200 nM; in DMSO
Procedure: as §1

Nonafluoropentanamide = compound: NC(=O)C(F)(F)C(F)(F)C(F)(F)C(F)(F)F [Nonafluoropentanamide]; details: 2200 nM; in DMSO
Procedure: as §1

[5] = compound: NS(=O)(=O)C(F)(F)C(F)(F)C(F)(F)C(F)(F)C(F)(F)C(F)(F)F [Perfluorohexanesulfonamide]; details: 2200 nM; in DMSO
Procedure: as §1

Tetrafluorosuccinic acid = compound: O=C(O)C(F)(F)C(F)(F)C(=O)O [Tetrafluorosuccinic acid]; details: 2200 nM; in DMSO
Procedure: as §1

[6] = compound: O=C(O)C(F)(F)C(F)(F)C(F)(F)C(F)(F)C(F)(F)C(F)(F)C(F)(F)C(F)(F)Cl [9-Chloro-perfluorononanoic acid]; details: in DMSO
Procedure: as §1

[7] = compound: O=C(O)CCC(F)(F)C(F)(F)C(F)(F)C(F)(F)C(F)(F)F [2H,2H,3H,3H-Perfluorooctanoic acid]; details: 2200 nM; in DMSO
Procedure: as §1

[8] = compound: O=S(=O)(O)C(F)(F)C(F)(F)OC(F)(F)C(F)(F)F [Perfluoro(2-ethoxyethane)sulfonic acid]; details: 2200 nM; in DMSO
Procedure: as §1

[9] = compound: O=S(=O)(O)CCC(F)(F)C(F)(F)C(F)(F)C(F)(F)C(F)(F)C(F)(F)F [6:2 Fluorotelomer sulfonic acid]; details: in DMSO
Procedure: as §1

Perfluoropinacol = compound: OC(C(F)(F)F)(C(F)(F)F)C(O)(C(F)(F)F)C(F)(F)F [Perfluoropinacol]; details: in DMSO
Procedure: as §1

[10] = compound: OCCC(F)(F)C(F)(F)C(F)(F)C(F)(F)F [4:2 Fluorotelomer alcohol]; details: 2200 nM; in DMSO
Procedure: as §1

Row | Test System | level (log10) ([1]; 740 nM) | level (log10) ([1]; 2200 nM) | level (log10) ([1]; 6700 nM) | level (log10) ([1]; 20000 nM) | level (log10) ([2]; 740 nM) | level (log10) ([2]; 2200 nM) | level (log10) [3] | level (log10) [4] | level (log10) (Octafluoroadipamide) | level (log10) (Nonafluoropentanamide) | level (log10) [5] | level (log10) (Tetrafluorosuccinic acid) | level (log10) ([6]; 2200 nM) | level (log10) ([6]; 6700 nM) | level (log10) ([6]; 20000 nM) | level (log10) [7] | level (log10) [8] | level (log10) ([9]; 2200 nM) | level (log10) ([9]; 6700 nM) | level (log10) ([9]; 20000 nM) | level (log10) ([9]; 60000 nM) | level (log10) (Perfluoropinacol; 2200 nM) | level (log10) (Perfluoropinacol; 6700 nM) | level (log10) (Perfluoropinacol; 20000 nM) | level (log10) [10]
1 | 3C:HLA-DR | -0.0065 ± 0.0035 | -0.0135 ± 0.011 | -0.004 ± 0.016 | -0.023 ± 0.02 | 0.0025 ± 0.00071 | 0.005 ± 0.0028 | -0.014 ± 0.014 | 0.001 ± 0.021 | 0.0055 ± 0.039 | -0.0145 ± 0.049 | -0.0005 ± 0.011 | 0 ± 0.034 | 0.013 ± 0.0057 | -0.0105 ± 0.0078 | 0.004 ± 0.021 | -0.004 ± 0.021 | 0.0015 ± 0.018 | -0.001 ± 0.0057 | -0.0075 ± 0.025 | -0.0145 ± 0.0078 | -0.0065 ± 0.0035 | -0.003 ± 0.011 | -0.0405 ± 0.0035 | -0.132 ± 0.028 | 0.0135 ± 0.0064
2 | LPS:sPGE2 | -0.0175 ± 0.026 | -0.025 ± 0.05 | -0.038 ± 0.05 | -0.016 ± 0.064 | -0.0525 ± 0.035 | -0.081 ± 0.013 | 0.0255 ± 0.04 | -0.0055 ± 0.0078 | 0.0525 ± 0.00071 | -0.0125 ± 0.023 | 0.001 ± 0.062 | -0.005 ± 0.0057 | 0.007 ± 0.035 | 0.0175 ± 0.0092 | -0.0895 ± 0.0078 | -0.049 ± 0.031 | -0.0005 ± 0.0078 | -0.0035 ± 0.012 | -0.008 ± 0.023 | -0.0215 ± 0.047 | -0.0345 ± 0.029 | 0.0195 ± 0.032 | 0.086 ± 0.038 | 0.182 ± 0.015 | -0.033 ± 0.013
3 | 3C:CD106/VCAM-1 | -0.013 | -0.008 ± 0.0028 | -0.032 ± 0.0099 | -0.012 ± 0.0085 | -0.0055 ± 0.0064 | -0.0175 ± 0.0078 | -0.03 ± 0.011 | -0.0055 ± 0.022 | -0.0295 ± 0.063 | -0.0135 ± 0.023 | 0.003 ± 0.016 | -0.0065 ± 0.0092 | 0.015 ± 0.0014 | -0.005 ± 0.0014 | -0.001 ± 0.021 | -0.0035 ± 0.029 | 0.013 ± 0.014 | -0.0105 ± 0.0064 | -0.019 ± 0.0071 | -0.035 | -0.014 ± 0.013 | 0.004 ± 0.0057 | -0.006 ± 0.02 | -0.0385 ± 0.018 | 0.015 ± 0.0099
4 | HDF3CGF:Proliferation 72hr | 0.003 ± 0.0028 | 0.0015 ± 0.0064 | -0.015 ± 0.0028 | -0.014 | -0.019 ± 0.052 | -0.011 ± 0.064 | -0.032 ± 0.016 | -0.0305 ± 0.022 | -0.0025 ± 0.035 | -0.011 ± 0.014 | 0.048 ± 0.021 | -0.047 ± 0.18 | 0.0855 ± 0.057 | 0.101 ± 0.022 | -0.081 ± 0.054 | -0.044 ± 0.0014 | -0.053 ± 0.014 | -0.004 ± 0.023 | 0.0015 ± 0.019 | 0.0725 ± 0.03 | 0.0405 ± 0.036 | -0.0495 ± 0.059 | -0.183 ± 0.044 | -0.39 ± 0.05 | -0.056 ± 0.011
5 | BF4T:CXCL8/IL-8 | 0.0525 ± 0.023 | 0.0725 ± 0.046 | 0.067 ± 0.037 | 0.035 ± 0.027 | -0.0055 ± 0.021 | -0.008 ± 0.018 | 0.0305 ± 0.0064 | 0.0145 ± 0.019 | -0.008 ± 0.028 | 0.0465 ± 0.021 | 0.0005 ± 0.11 | 0.019 ± 0.025 | 0.058 ± 0.058 | 0.112 ± 0.042 | 0.0875 ± 0.015 | 0.0585 ± 0.019 | 0.004 ± 0.031 | 0.019 ± 0.033 | 0.069 ± 0.058 | 0.0625 ± 0.044 | 0.0805 ± 0.057 | 0.078 ± 0.1 | 0.081 ± 0.024 | 0.0865 ± 0.032 | 0.0475 ± 0.059
6 | BF4T:tPA | 0 ± 0.0085 | 0.0015 ± 0.0035 | -0.002 ± 0.0057 | -0.037 ± 0.031 | 0.0195 ± 0.046 | -0.0305 ± 0.019 | 0.0075 ± 0.042 | 0.0045 ± 0.026 | -0.0275 ± 0.0021 | -0.0305 ± 0.011 | -0.006 ± 0.03 | 0.01 ± 0.014 | -0.031 ± 0.052 | -0.075 ± 0.0099 | -0.098 ± 0.0099 | -0.0015 ± 0.036 | 0.0355 ± 0.0021 | 0.0035 ± 0.06 | -0.008 ± 0.027 | -0.036 ± 0.028 | -0.0355 ± 0.036 | -0.013 ± 0.055 | -0.028 ± 0.011 | 0.032 ± 0.014 | 0.004 ± 0.016
7 | BE3C:MMP-9 | -0.022 ± 0.028 | -0.017 ± 0.011 | 0.0245 ± 0.039 | 0.022 ± 0.044 | 0.0095 ± 0.047 | -0.015 ± 0.062 | 0.008 ± 0.011 | -0.003 ± 0.018 | 0.0105 ± 0.046 | -0.0105 ± 0.028 | -0.026 ± 0.0071 | -0.0065 ± 0.026 | -0.0105 ± 0.019 | 0.001 ± 0.014 | -0.04 ± 0.014 | -0.0135 ± 0.023 | 0 ± 0.014 | 0.004 ± 0.0014 | -0.004 ± 0.021 | -0.0045 ± 0.0078 | 0.016 ± 0.021 | 0.001 ± 0.011 | -0.011 ± 0.0014 | -0.04 ± 0.0028 | 0.0015 ± 0.0092
8 | BT:sIL-17A | -0.0085 ± 0.26 | -0.04 ± 0.1 | -0.19 ± 0.31 | -0.015 ± 0.15 | 0.0435 ± 0.14 | 0.12 ± 0.17 | 0.0415 ± 0.052 | -0.0815 ± 0.26 | -0.0675 ± 0.064 | -0.0305 ± 0.14 | -0.161 ± 0.03 | 0.0005 ± 0.11 | -0.0215 ± 0.098 | 0.015 ± 0.054 | 0.008 ± 0.047 | -0.0995 ± 0.019 | -0.037 ± 0.09 | -0.0545 ± 0.071 | -0.135 ± 0.05 | -0.005 ± 0.081 | -0.126 ± 0.21 | -0.0905 ± 0.018 | -0.177 ± 0.11 | -0.642 ± 0.061 | -0.03 ± 0.15
9 | lMphg:CD62E/E-Selectin | 0.0175 ± 0.013 | 0.0235 ± 0.005 | -0.0135 ± 0.011 | -0.01 ± 0.017 | -0.028 ± 0.0014 | -0.0145 ± 0.052 | -0.019 ± 0.016 | -0.027 ± 0.027 | 0.012 ± 0.0071 | 0.0235 ± 0.033 | -0.0065 ± 0.033 | -0.019 ± 0.089 | -0.0295 ± 0.005 | 0.01 ± 0.0099 | 0.017 ± 0.0042 | 0.003 ± 0.025 | -0.012 ± 0.011 | -0.013 ± 0.045 | -0.0225 ± 0.018 | -0.039 ± 0.0071 | 0 ± 0.023 | 0.0225 ± 0.035 | 0.0515 ± 0.013 | -0.139 ± 0.018 | -0.0075 ± 0.042
10 | KF3CT:uPA | 0.004 ± 0.014 | 0.006 ± 0.0085 | 0.007 ± 0.0057 | 0.007 ± 0.0028 | -0.0065 ± 0.013 | -0.0065 ± 0.0092 | 0 ± 0.0028 | -0.0065 ± 0.028 | -0.01 ± 0.0057 | 0.0115 ± 0.00071 | -0.02 ± 0.038 | -0.015 ± 0.014 | 0.0145 ± 0.0064 | 0.0095 ± 0.0078 | 0.01 | -0.005 ± 0.0071 | 0.003 ± 0.017 | -0.002 ± 0.0085 | 0.0015 ± 0.005 | -0.0115 ± 0.019 | 0.008 ± 0.03 | -0.0005 ± 0.046 | 0.0065 ± 0.035 | 0.019 ± 0.021 | -0.021 ± 0.0085
